In article PMC8191029:
Results are given in words; binding and its absence hold for the method and conditions named. Binding seen in cells or lysates may run through a third protein. Some binding calls cover weakened binding; strength is not graded here. One block for each substance: values may come before it.

Chains of the proteins cited; added tags and fusions are not shown.
UniProt Q9H6Z9: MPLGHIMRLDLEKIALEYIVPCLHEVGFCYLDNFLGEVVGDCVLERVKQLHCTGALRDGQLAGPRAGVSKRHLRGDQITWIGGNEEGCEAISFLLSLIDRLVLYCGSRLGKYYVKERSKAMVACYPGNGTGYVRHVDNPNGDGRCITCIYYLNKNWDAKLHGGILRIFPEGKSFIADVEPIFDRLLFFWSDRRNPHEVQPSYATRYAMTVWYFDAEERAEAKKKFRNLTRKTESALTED
UniProt Q93008: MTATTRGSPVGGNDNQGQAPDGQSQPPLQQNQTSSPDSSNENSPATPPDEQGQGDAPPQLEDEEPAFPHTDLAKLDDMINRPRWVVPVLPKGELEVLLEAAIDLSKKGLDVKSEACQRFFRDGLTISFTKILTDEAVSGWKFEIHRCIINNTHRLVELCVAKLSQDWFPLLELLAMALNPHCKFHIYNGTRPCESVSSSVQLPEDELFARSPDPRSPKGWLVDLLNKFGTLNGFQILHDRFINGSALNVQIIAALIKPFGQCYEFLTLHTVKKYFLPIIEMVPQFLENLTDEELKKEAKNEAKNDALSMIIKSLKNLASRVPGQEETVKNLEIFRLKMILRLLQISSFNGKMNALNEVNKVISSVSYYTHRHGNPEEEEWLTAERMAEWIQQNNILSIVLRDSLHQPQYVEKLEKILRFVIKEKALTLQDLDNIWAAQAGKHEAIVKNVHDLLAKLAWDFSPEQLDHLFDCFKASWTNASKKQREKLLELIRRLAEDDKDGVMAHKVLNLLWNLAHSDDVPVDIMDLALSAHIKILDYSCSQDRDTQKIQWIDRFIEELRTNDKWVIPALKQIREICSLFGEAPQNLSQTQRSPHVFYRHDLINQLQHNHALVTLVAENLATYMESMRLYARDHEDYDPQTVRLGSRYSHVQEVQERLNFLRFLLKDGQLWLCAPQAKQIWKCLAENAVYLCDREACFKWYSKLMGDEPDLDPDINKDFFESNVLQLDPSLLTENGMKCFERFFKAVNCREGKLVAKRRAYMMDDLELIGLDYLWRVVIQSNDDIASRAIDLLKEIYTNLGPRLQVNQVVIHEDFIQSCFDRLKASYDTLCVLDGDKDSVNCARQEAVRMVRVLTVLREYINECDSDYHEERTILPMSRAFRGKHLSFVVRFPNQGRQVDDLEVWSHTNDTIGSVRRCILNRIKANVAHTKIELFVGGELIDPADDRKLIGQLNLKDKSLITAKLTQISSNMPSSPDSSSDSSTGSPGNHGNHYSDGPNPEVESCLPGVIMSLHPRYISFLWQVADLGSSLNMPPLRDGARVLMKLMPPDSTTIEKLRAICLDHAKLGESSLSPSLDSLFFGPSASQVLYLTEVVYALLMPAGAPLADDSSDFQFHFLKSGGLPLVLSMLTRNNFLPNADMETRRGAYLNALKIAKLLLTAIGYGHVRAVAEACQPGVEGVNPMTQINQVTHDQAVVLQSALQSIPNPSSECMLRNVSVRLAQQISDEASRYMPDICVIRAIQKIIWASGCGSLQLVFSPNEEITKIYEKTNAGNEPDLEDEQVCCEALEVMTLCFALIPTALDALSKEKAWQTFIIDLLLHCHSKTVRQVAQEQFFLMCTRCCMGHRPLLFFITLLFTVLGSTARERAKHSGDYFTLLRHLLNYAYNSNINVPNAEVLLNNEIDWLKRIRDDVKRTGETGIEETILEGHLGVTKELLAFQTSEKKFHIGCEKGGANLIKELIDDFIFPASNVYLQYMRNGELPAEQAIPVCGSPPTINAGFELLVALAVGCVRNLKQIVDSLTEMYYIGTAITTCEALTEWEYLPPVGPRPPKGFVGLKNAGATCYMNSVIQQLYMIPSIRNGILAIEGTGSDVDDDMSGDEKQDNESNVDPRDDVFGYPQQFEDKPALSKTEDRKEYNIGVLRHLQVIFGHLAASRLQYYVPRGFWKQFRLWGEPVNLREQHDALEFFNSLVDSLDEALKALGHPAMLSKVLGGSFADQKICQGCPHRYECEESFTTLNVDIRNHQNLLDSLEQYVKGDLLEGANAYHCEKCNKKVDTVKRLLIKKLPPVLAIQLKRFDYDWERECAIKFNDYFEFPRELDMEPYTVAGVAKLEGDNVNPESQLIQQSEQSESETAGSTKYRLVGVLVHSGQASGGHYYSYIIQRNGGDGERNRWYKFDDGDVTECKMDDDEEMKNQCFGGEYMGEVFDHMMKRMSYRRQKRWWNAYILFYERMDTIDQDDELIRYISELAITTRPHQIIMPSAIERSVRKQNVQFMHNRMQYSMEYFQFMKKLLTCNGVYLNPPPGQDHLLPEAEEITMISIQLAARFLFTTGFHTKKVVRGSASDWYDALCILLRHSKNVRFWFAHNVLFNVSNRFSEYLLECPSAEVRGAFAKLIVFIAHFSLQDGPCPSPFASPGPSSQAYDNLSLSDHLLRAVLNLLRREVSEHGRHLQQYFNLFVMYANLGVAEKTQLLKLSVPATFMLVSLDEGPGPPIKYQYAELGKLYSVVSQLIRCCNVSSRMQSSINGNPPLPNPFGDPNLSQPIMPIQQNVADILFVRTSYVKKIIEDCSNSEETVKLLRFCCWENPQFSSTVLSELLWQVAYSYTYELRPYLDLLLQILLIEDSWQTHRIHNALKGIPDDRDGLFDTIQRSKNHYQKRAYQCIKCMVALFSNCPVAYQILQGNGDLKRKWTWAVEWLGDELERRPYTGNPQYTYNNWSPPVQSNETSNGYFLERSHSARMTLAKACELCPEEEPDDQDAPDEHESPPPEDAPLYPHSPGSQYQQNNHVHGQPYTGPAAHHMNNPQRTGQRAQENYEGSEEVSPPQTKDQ

Assays:
[1] = biological target: prolyl 4-hydroxylase domain protein 3 (human (endogenous in RBE and HUCCT)) (UniProt Q9H6Z9); test: co-IP; endogenous proteins; lysates of RBE and HUCCT cells (NP40 lysis buffer) immunoprecipitated with control IgG, anti-USP9X or anti-EGLN3 antibody overnight at 4 °C, Protein A/G, immunoblotting
Flag-USP9X = Flag-USP9X (UniProt Q93008); test: co-IP; HEK293T cells transiently expressing Flag-USP9X and HA-EGLN3; lysates (NP40 lysis buffer) immunoprecipitated with anti-Flag or anti-HA antibody overnight at 4 °C, Protein A/G, immunoblotting
HA-EGLN3 = HA-EGLN3 (UniProt Q9H6Z9); test: as above
[2] = biological target: Ubiquitin-specific peptidase 9X (human (endogenous in RBE and HUCCT)) (UniProt Q93008); test: co-IP; endogenous proteins; lysates of RBE and HUCCT cells (NP40 lysis buffer) immunoprecipitated with control IgG, anti-USP9X or anti-EGLN3 antibody overnight at 4 °C, Protein A/G, immunoblotting

binding [1]: binds
Substance: Ubiquitin-specific peptidase 9X (from UniProt Q93008 1-2554) (enzyme)

binding (Flag-USP9X): binds
Substance: HA-EGLN3 (from UniProt Q9H6Z9 1-239) (enzyme)

binding (HA-EGLN3): binds
Substance: Flag-USP9X (from UniProt Q93008 1-2554) (enzyme)

binding [2]: binds
Substance: prolyl 4-hydroxylase domain protein 3 (from UniProt Q9H6Z9 1-239) (enzyme)
